In PMC13571239:
These are yes or no findings as the source states them, for the method shown. In cells and extracts the contact can be indirect. Some binding calls cover weakened binding; strength is not graded here. For some of these results: Where a sequence is shown, tags or fusion partners need not be part of it.

By UniProt entry, the sequences of proteins in these tests, tags left out. Residues count along the entry.
UniProt P25705, residues 44-553: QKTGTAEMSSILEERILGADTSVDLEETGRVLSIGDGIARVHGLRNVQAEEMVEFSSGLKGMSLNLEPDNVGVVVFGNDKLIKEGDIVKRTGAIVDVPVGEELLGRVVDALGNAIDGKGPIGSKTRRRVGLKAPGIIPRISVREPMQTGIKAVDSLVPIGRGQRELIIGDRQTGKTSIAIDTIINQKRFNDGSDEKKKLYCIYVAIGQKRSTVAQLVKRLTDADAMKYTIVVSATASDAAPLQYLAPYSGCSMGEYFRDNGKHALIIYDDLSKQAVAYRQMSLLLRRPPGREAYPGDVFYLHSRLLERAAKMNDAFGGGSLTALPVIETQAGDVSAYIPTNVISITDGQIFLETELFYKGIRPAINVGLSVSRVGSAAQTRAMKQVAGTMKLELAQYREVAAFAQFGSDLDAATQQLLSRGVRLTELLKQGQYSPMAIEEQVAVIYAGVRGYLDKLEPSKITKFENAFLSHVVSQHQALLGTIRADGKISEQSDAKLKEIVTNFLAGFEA

How the values were obtained:
ATP5A-HA = ATP5A-HA (UniProt P25705); assay: co-IP; HEK293T cells expressing ATP5A-HA with DDIT4L-myc or its deletion mutants; precipitated with anti-HA antibody, myc detected; n = 3
[1] = molecular target: T1, DNA damage-inducible transcript 4-like (DDIT4L) (UniProt Q96D03); assay: proximity ligation; in HEK293 cells
T1 sequence: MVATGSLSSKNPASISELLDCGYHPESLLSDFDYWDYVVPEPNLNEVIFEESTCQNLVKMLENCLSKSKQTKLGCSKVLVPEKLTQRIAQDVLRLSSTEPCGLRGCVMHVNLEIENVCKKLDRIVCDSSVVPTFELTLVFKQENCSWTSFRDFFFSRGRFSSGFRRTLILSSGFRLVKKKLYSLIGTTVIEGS

DDIT4L-myc [2] = molecular target: T2, DDIT4L-myc (UniProt Q96D03); assay: co-IP; GBM primary cells (hGBM11879) co-expressing TOM40-HA and DDIT4L-myc; precipitated with anti-myc antibody, HA detected; n = 3
T2 sequence: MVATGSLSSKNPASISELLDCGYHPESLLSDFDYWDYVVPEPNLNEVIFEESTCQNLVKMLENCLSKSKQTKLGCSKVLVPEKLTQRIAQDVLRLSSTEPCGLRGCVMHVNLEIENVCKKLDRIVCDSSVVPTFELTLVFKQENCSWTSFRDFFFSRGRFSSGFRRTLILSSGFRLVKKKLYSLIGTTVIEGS

DDIT4L-myc [3] = molecular target: T2, DDIT4L-myc; assay: co-IP; HEK293 cells expressing TOM40-HA with DDIT4L-myc or its deletion mutants; precipitated with anti-myc antibody, HA detected; n = 3
DDIT4LΔ1-myc = molecular target: T3, DDIT4LΔ1-myc (UniProt Q96D03); assay: as above
T3 sequence: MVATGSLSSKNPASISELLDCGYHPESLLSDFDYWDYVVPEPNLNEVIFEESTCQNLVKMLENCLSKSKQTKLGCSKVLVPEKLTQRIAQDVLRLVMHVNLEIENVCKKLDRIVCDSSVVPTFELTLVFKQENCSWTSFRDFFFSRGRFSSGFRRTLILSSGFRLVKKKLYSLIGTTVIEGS

DDIT4LΔ2-myc = molecular target: T4, DDIT4LΔ2-myc (UniProt Q96D03); assay: as above
T4 sequence: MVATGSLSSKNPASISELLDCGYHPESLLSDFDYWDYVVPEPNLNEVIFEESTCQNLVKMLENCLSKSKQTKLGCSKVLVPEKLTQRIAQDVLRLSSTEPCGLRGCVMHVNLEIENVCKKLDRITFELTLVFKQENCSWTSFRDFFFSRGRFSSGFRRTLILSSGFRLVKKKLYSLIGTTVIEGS

DDIT4LΔ3-myc = molecular target: T5, DDIT4LΔ3-myc (UniProt Q96D03); assay: as above
T5 sequence: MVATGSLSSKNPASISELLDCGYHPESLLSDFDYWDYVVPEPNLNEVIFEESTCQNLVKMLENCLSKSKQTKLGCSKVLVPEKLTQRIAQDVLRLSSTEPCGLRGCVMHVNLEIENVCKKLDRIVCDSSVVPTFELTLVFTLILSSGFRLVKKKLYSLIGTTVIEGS

B1: DDIT4L-myc (protein, UniProt Q96D03 1-193)
chain: MVATGSLSSKNPASISELLDCGYHPESLLSDFDYWDYVVPEPNLNEVIFEESTCQNLVKMLENCLSKSKQTKLGCSKVLVPEKLTQRIAQDVLRLSSTEPCGLRGCVMHVNLEIENVCKKLDRIVCDSSVVPTFELTLVFKQENCSWTSFRDFFFSRGRFSSGFRRTLILSSGFRLVKKKLYSLIGTTVIEGS
In the case of B1, the binding (ATP5A-HA) is reported as “binds”.

B2: DDIT4LΔ1-myc (protein, UniProt Q96D03)
chain: MVATGSLSSKNPASISELLDCGYHPESLLSDFDYWDYVVPEPNLNEVIFEESTCQNLVKMLENCLSKSKQTKLGCSKVLVPEKLTQRIAQDVLRLVMHVNLEIENVCKKLDRIVCDSSVVPTFELTLVFKQENCSWTSFRDFFFSRGRFSSGFRRTLILSSGFRLVKKKLYSLIGTTVIEGS
In the case of B2, the binding (ATP5A-HA) is reported as “binds”.

B3: DDIT4LΔ2-myc (protein, UniProt Q96D03)
chain: MVATGSLSSKNPASISELLDCGYHPESLLSDFDYWDYVVPEPNLNEVIFEESTCQNLVKMLENCLSKSKQTKLGCSKVLVPEKLTQRIAQDVLRLSSTEPCGLRGCVMHVNLEIENVCKKLDRITFELTLVFKQENCSWTSFRDFFFSRGRFSSGFRRTLILSSGFRLVKKKLYSLIGTTVIEGS
With B3 the binding (ATP5A-HA) was “binds”.

B4: DDIT4LΔ3-myc (protein, UniProt Q96D03)
chain: MVATGSLSSKNPASISELLDCGYHPESLLSDFDYWDYVVPEPNLNEVIFEESTCQNLVKMLENCLSKSKQTKLGCSKVLVPEKLTQRIAQDVLRLSSTEPCGLRGCVMHVNLEIENVCKKLDRIVCDSSVVPTFELTLVFTLILSSGFRLVKKKLYSLIGTTVIEGS
In the case of B4, the binding (ATP5A-HA) is reported as “binds”.

B5: TOM40 (protein, UniProt O96008 1-361)
chain: MGNVLAASSPPAGPPPPPAPALVGLPPPPPSPPGFTLPPLGGSLGAGTSTSRSSERTPGAATASASGAAEDGACGCLPNPGTFEECHRKCKELFPIQMEGVKLTVNKGLSNHFQVNHTVALSTIGESNYHFGVTYVGTKQLSPTEAFPVLVGDMDNSGSLNAQVIHQLGPGLRSKMAIQTQQSKFVNWQVDGEYRGSDFTAAVTLGNPDVLVGSGILVAHYLQSITPCLALGGELVYHRRPGEEGTVMSLAGKYTLNNWLATVTLGQAGMHATYYHKASDQLQVGVEFEASTRMQDTSVSFGYQLDLPKANLLFKGSVDSNWIVGATLEKKLPPLPLTLALGAFLNHRKNKFQCGFGLTIG
With B5 the binding [1] was “binds”.

B6: TOM40-HA (protein, UniProt O96008 1-361)
chain: MGNVLAASSPPAGPPPPPAPALVGLPPPPPSPPGFTLPPLGGSLGAGTSTSRSSERTPGAATASASGAAEDGACGCLPNPGTFEECHRKCKELFPIQMEGVKLTVNKGLSNHFQVNHTVALSTIGESNYHFGVTYVGTKQLSPTEAFPVLVGDMDNSGSLNAQVIHQLGPGLRSKMAIQTQQSKFVNWQVDGEYRGSDFTAAVTLGNPDVLVGSGILVAHYLQSITPCLALGGELVYHRRPGEEGTVMSLAGKYTLNNWLATVTLGQAGMHATYYHKASDQLQVGVEFEASTRMQDTSVSFGYQLDLPKANLLFKGSVDSNWIVGATLEKKLPPLPLTLALGAFLNHRKNKFQCGFGLTIG
B6 was tested, and the binding (DDIT4L-myc [2]) was “binds”, the binding (DDIT4L-myc [3]) was “binds” and the binding (DDIT4LΔ1-myc) was “binds”. For the same binder, the binding (DDIT4LΔ2-myc) was “binds” and the binding (DDIT4LΔ3-myc) was “binds”.
